Assay results as given in the supplement of paper PMC5407854, “Inhibitor of ppGalNAc-T3-mediated O-glycosylation blocks cancer cell invasiveness and lowers FGF23 levels” (eLife, 2017).
In all, about 1,700 compounds were measured (“T3 sensor activation Q score (MG/GFP ratio z-score vs DMSO controls)”: median about 0.25, highest 2% from about 1.9 on). The list shows a part of the results.

system: ppGalNAc-T3 sensor; assay: T3 sensor activation Q score (MG/GFP ratio z-score vs DMSO controls) (SD units); higher = more sensor activation (inhibition of ppGalNAc-T3 glycosylation); settings: HEK293 sensor cells; 10 µM; 6 h
Experimental: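 Cells were treated with compound at 10 uM for 6 h, then MG/GFP ratio was read by flow cytometry (10,000 cells per well, duplicate wells). Q = (R - R_neg)/SD_neg relative to DMSO vehicle controls; the signal rises when the glycosyltransferase is inhibited.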

Row | SMILES | T3 sensor activation Q score
1 | CCOC(=O)N1CCc2cc(OC)c(OC)c3c2c1cc1cc(OC)c(OC)cc13 | 0.9
2 | C=CCSC(CC)(CC)C(N)=O | 0.8
3 | CNC(=O)c1cc(Oc2ccc(NC(=O)Nc3ccc(Cl)c(C(F)(F)F)c3)c(F)c2)ccn1 | 0
4 | O=C1OC(CN(Cc2ccccc2)Cc2ccccc2)CN1/N=C/c1ccc([N+](=O)[O-])o1 (stereo not drawn) | -0.6
5 | Cc1c(Cl)ccc2c(C(=O)O)cc(-c3ccccc3)nc12 | 0.5
6 | Clc1ccc(-c2n[nH]c3c2Cc2ccccc2-3)cc1Cl | 1.8
7 | Nc1c(Cl)ncnc1NCCO | 0.55
8 | CCc1nc(N)nc(N)c1-c1ccc(N(C)Cc2ccccc2)c([N+](=O)[O-])c1 | -1.85
9 | CCOC(=O)c1c(C)oc(C)c(C(=O)OCC)c1=O | 0.85
10 | O=[N+]([O-])c1ccc(-c2ncc(-c3ccc(Br)cc3)o2)cc1 | 1.8
11 | Cc1ccc2ccc(C#N)cc2c1O | -0.35
12 | CCOC(=O)c1nn(C)c2[nH]c(=O)n(C)c(=O)c12 | 0.15
13 | CC(C)(C#N)c1cc(Cn2cncn2)cc(C(C)(C)C#N)c1 | 0.4
14 | O=C1NC(=O)C(Cc2ccccc2)(c2cccnc2)N1 (stereo not drawn) | 1.05
15 | Nc1ccc(OC(=O)Nc2ccc(O)cc2)cc1 | -0.45
16 | CC1=CC2(C)NC(=O)C(C)C12 (stereo not drawn) | -0.9
17 | O=C1NC(=O)C2(CCc3ccccc32)N1 (stereo not drawn) | 0.25
18 | CCOC(=O)c1ccc(NC(=O)Oc2cc(C)c(Cl)cc2C(C)C)cc1 | 1.4
19 | O=C(O)CCN1c2ccccc2Sc2ccccc21 | 0.35
20 | Cc1nc2c(O)cccc2cc1CO | 0.4
21 | OCc1ncc(-c2ccccc2)s1 | -0.6
22 | O=C1Cc2cccc(=O)c(O)c2C(=O)O1 | 0.65
23 | O=C(Nc1ccc(Nc2ccccc2)cc1)Nc1ccccc1Cl | 0.75
24 | CC(=O)OC1C=CCC2C(=O)c3cccc(O)c3C(O)C12 (stereo not drawn) | 0.8

Row | SMILES | T3 sensor activation Q score
25 | Oc1ccc(NC(=S)Nc2ccccc2)cc1 | 1.35
26 | CC[C@]1(O)C[C@H]2CN(CCc3c([nH]c4ccccc34)[C@@](C(=O)OC)(c3cc4c(cc3OC)N(C=O)[C@H]3[C@@](O)(C(=O)OC)[C@H](OC(C)=O)[C@]5(CC)C=CCN6CC[C@]43[C@@H]65)C2)C1 | 1.6
27 | COc1cc(-c2ccc(Nc3ccccc3C(=O)O)c(OC)c2)ccc1Nc1ccccc1C(=O)O | 0.85
28 | COC(=O)c1cc(C)[nH]c2c(C)cc3nc4ccccc4c3c12 | -0.15
29 | O=C(O)c1cccc2c1C(=O)c1cccc3snc-2c13 | -0.15
30 | Cc1ccc([S+]([O-])c2ccc([N+](=O)[O-])c3nonc23)cc1 (stereo not drawn) | -0.6
31 | O=C(Nc1ccc(Nc2ccncc2)cc1)c1ccc(Nc2ccnc3ccc([N+](=O)[O-])cc23)cc1[N+](=O)[O-] | -1.4
32 | CCOC(=O)C(Cc1ccc(O)cc1)Nc1nc2ccccc2o1 (stereo not drawn) | -0.1
33 | S=c1cn[nH]c2ccccc12 | -0.45
34 | CC1(CN2CCCC2)CCC(NC(=O)C(c2ccccc2)c2ccccc2)C(C)(C)O1 (stereo not drawn) | -1.45
35 | C#CC(C)OCC1CNC(=S)O1 (stereo not drawn) | -1.8
36 | CC(OC(=O)Nc1cccc(Cl)c1)C(=O)O (stereo not drawn) | -0.45
37 | CCCCNc1cc(Cl)nc(N)n1 | 0.45
38 | COc1cc(N=Nc2cccc(S(N)(=O)=O)c2)c2ccccc2c1N | -1.8
39 | CN(C)CCC1c2ccc(Cl)cc2CCc2cccnc21 (stereo not drawn) | 0.25
40 | CC(=O)Nc1ccc(Cc2nc3c([nH]2)c(=O)n(C)c(=O)n3C)cc1 | -1.9
41 | Clc1ccccc1-c1nc2ccccc2[nH]1 | -0.55
42 | Nc1nc2nn(-c3ccccc3)nc2c(=O)[nH]1 | -0.55
43 | CCOc1ccc(NC(=S)NC(=O)c2ccco2)cc1 | -1.05
44 | O=C(Nc1ccc(NC(=O)c2ccncc2)cc1)c1ccncc1 | -0.9
45 | CC1CC=C(O)C12OCC(C)(C)CO2 (stereo not drawn) | -0.05
46 | CN(N=O)C(=O)N[C@@H]1[C@@H](O)[C@H](O)[C@@H](CO)O[C@@H]1O | 1.3
47 | O=C(Nc1ccc(Cl)c(Cl)c1)c1ccc(Cl)c(Cl)c1 | 0.3
48 | Cc1[nH]c(N=Nc2ccccc2)nc1N=Nc1ccccc1 | -1.15

Gathered by group, those above with an aryl methoxy group (4)
Row | SMILES | T3 sensor activation Q score
1 | CCOC(=O)N1CCc2cc(OC)c(OC)c3c2c1cc1cc(OC)c(OC)cc13 | 0.9
26 | CC[C@]1(O)C[C@H]2CN(CCc3c([nH]c4ccccc34)[C@@](C(=O)OC)(c3cc4c(cc3OC)N(C=O)[C@H]3[C@@](O)(C(=O)OC)[C@H](OC(C)=O)[C@]5(CC)C=CCN6CC[C@]43[C@@H]65)C2)C1 | 1.6
27 | COc1cc(-c2ccc(Nc3ccccc3C(=O)O)c(OC)c2)ccc1Nc1ccccc1C(=O)O | 0.85
38 | COc1cc(N=Nc2cccc(S(N)(=O)=O)c2)c2ccccc2c1N | -1.8

Further results.

Row | SMILES | T3 sensor activation Q score
49 | CC1(C)O[C@H]2CC(=O)OC[C@]23[C@H]2CC[C@@]4(C)[C@H](c5ccoc5)OC(=O)[C@H]5O[C@]54[C@]2(C)C(=O)C[C@@H]13 | 0
50 | COc1cc2c(cc1OC)C(/C=C/c1ccco1)=NCC2 | -0.15
51 | O=C(/C=C/c1cccnc1)c1ccccc1O | -0.65
52 | C#Cc1cccc(Nc2ncnc3cc(OCCOC)c(OCCOC)cc23)c1 | 2.15
53 | O=C1OCC/C1=C\c1ccc2c(c1)OCO2 | -0.1
54 | COCC(O)Cn1ccnc1[N+](=O)[O-] (stereo not drawn) | 0.85
55 | COC(=O)C1=C(C(=O)OC)[C@@H]2CCC[C@H]1[C@H]1[C@@H]2N=NN1c1ccccc1 | 1.15
56 | O=C(O)CCC1(c2ccccc2)NC(=O)NC1=O (stereo not drawn) | 0.65
57 | CC(=O)OCCn1c([N+](=O)[O-])cnc1/C=[N+](\[O-])C1CCCCC1 | -0.05
58 | O=C(c1ccccc1)C1N=NCC1c1ccc(Cl)cc1 (stereo not drawn) | 0.8
59 | CN1N=C(N)c2cn([C@@H]3O[C@H](COP(=O)(O)O)[C@@H](O)[C@H]3O)c3ncnc1c23 | 0.25
60 | Cn1ncc2c(Nc3cccc(Cl)c3)nc(Nc3cccc(Cl)c3)nc21 | 0.75
61 | CC1(C)CC(=O)C(CC(=O)c2ccccc2)=C(NN=C(N)N)C1 | 0.7
62 | CO[C@H](C(=O)[C@@H](O)[C@@H](C)O)[C@@H]1Cc2cc3cc(O[C@H]4C[C@@H](O[C@H]5C[C@@H](O)[C@H](O)[C@@H](C)O5)[C@H](O)[C@@H](C)O4)c(C)c(O)c3c(O)c2C(=O)[C@H]1O[C@H]1C[C@@H](O[C@H]2C[C@@H](O[C@H]3C[C@](C)(O)[C@H](O)[C@@H](C)O3)[C@@H](O)[C@@H](C)O2)[C@H](O)[C@@H](C)O1 | -1.35
63 | COc1ccccc1N1C(=O)CC(Sc2ccccc2N)C1=O (stereo not drawn) | 0.05
64 | CC1(C)CCCC2(C)C(OCCO)=CC(=O)C=C12 (stereo not drawn) | 0.85
65 | Cc1csc(NC(=O)c2ccc(C(=O)Nc3nc(C)cs3)cc2)n1 | 1.4
66 | O=C1NCN(CCO)CN1 | 1.3
67 | O=C(O)/C=C\c1cc2c(cc1[N+](=O)[O-])OCO2 | 0.3
68 | NC(=O)c1nc2c([nH]c1=O)CCCC2 | -1.25
69 | CC(=O)/C=C(\C)Nc1ccccc1O | -0.05
70 | Cc1c(C(C)(C(=O)O)c2c(C)n(C)c3ccccc23)c2ccccc2n1C | 0.8
71 | O=C(O)/C=C/C(=O)Nc1cccc2cccnc12 | 0.7
72 | Cc1cc(C)c2c(SC(C)C)nc(N)nc2n1 | -1.35

Row | SMILES | T3 sensor activation Q score
73 | O=C(NN1CCCCC1)NN1CCCCC1 | 1.35
74 | CC1=C2C3OC(=O)C(C)C3CCC2(C)C=C(Cl)C1=O (stereo not drawn) | 1.1
75 | CCCN(CCC)c1ccc(/C=C/c2ccc3cc(OCC)ccc3n2)cc1 | 1.4
76 | Clc1ncnc2[nH]ccc12 | -0.05
77 | Cc1ccc2c(c1)C(=C(C#N)C#N)CCN2 | 0.05
78 | OCc1nnn(-c2ccccc2)c1CO | -1
79 | NNC(=O)c1nnsc1-c1csnn1 | 1.2
80 | C/C(=C\c1csc(C)n1)[C@@H]1C[C@@H]2O[C@]2(C)CCC[C@H](C)[C@H](O)[C@@H](C)C(=O)C(C)(C)[C@@H](O)CC(=O)N1 | -1.25
81 | Nc1ccc(C(=O)Oc2ccc([N+](=O)[O-])cc2)cc1 | -0.5
82 | N#Cc1ccc(NC2c3ccccc3CC2O)cc1 (stereo not drawn) | -0.45
83 | c1cncc(-c2nc3ccccc3s2)c1 | 0.45
84 | O=C(CSc1nc2ccc([N+](=O)[O-])cc2s1)c1ccc2ccccc2c1 | 0.35
85 | CN1C(=C=Cc2cc(I)c(O)c(I)c2)C(C)(C)c2ccccc21 | 1.9
86 | Nc1nc2ccc([N+](=O)[O-])cc2[nH]1 | 1.55
87 | CC(=O)NC1(C(=O)O)CCCC1 | -1.1
88 | Cc1ccc(NC(=O)c2ccc(CN3CCN(C)CC3)cc2)cc1Nc1nccc(-c2cccnc2)n1 | -1.55
89 | CCOC(=O)c1[nH]c(C(=O)O)c(OC(=O)CC)c1C | 0.75
90 | ClC(Cl)(Cl)C1=NCc2nnn(Cc3ccccc3)c2N1 | -1.2
91 | COc1cc2c(Nc3ccc(Br)cc3F)ncnc2cc1OCC1CCN(C)CC1 | 2.1
92 | O=c1[nH]c(SCc2ccccc2[N+](=O)[O-])nc2nc[nH]c12 | 0.3
93 | Nc1nc(=S)ss1 | -0.2
94 | Cc1ccc(/C=C2\CCOC2=O)cc1 | 0.9
95 | c1ccc(CSc2nc3ncncc3[nH]2)cc1 | -1.15
96 | CCCCCc1cccnc1 | 0.9

Row | SMILES | T3 sensor activation Q score
97 | O=Cc1c[nH]c2ncccc12 | 0
98 | C#CCSc1n[nH]c(-c2ccco2)n1 | 0.05
99 | C1C2CC3C1C3/C2=N\N=C1/C2CC3C(C2)C13 | 0.1
100 | FC(F)(F)c1cccc(OCC2CNC(=S)O2)c1 (stereo not drawn) | 1.65
101 | Cc1cc2cc3c(=O)[nH]c(=O)cc-3n(CC(O)C(O)C(O)CO)c2cc1C (stereo not drawn) | 1.75
102 | Nc1n[nH]c(=S)n1-c1ccc(Cl)cc1 | 1.5
103 | COc1ccccc1NC(=O)c1cc2ccccc2cc1O | -0.55
104 | CN(CC(=O)O)Cc1oc(CO)cc(=O)c1O | 0.25
105 | c1ccc2c(c1)Oc1cccc3cccc-2c13 | 1.6
106 | CCCCn1ccnc1C | 0.85
107 | Cc1cc(-c2ccc(N3C(=O)CC4(CCCC4)C3=O)c(C)c2)ccc1N1C(=O)CC2(CCCC2)C1=O | 0.35
108 | N#Cc1[nH]nc2nc[nH]c(=O)c12 | -0.4
109 | O=C(O)CCC(=O)OCCN(Cc1ccc(Oc2ccc([N+](=O)[O-])cc2)cc1)C(=O)C(Cl)Cl | 0.2
110 | CC1=C(/C=C/C(C)=C/C=C/C(C)=C/C(=O)O)C(C)(C)CCC1 | -0.05
111 | CCOc1ccc(Nc2c3ccccc3nc3ccccc23)cc1 | -0.5
112 | O=[N+]([O-])c1cccnc1Oc1cccnc1 | 0.55
113 | Cc1ccc(Nc2c(O)nc[nH]c2=O)cc1C | -0.35
114 | Nc1ccc(S(=O)(=O)NCC2CCCCO2)cc1 (stereo not drawn) | 1.6
115 | COc1ccc2c(c1)c1ccc3c(c1n2C)C(=O)C=CC3=O | -0.85
116 | Cc1cc2nc(CS)[nH]c2cc1C | -1.1
117 | COc1ccc(/C(C#N)=C/c2ccccn2)cc1 | 0.95
118 | COc1ccc(C2C3=C(COC3=O)Oc3cc4c(cc32)OCO4)cc1OC (stereo not drawn) | 0.05
